# The other results are listed elsewhere or left out.
# The chains behind the UniProt entries cited, without tags or fusion partners. Where a name states a change or a piece, a line headed by the entry shows the natural chain unless it says otherwise.
# UniProt P09234, whole entry, looked up: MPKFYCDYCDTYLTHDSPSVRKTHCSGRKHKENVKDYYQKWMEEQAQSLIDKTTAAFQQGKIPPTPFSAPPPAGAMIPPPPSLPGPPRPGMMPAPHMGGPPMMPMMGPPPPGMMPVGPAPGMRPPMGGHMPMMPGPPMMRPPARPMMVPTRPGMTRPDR
# UniProt Q16637, whole entry, looked up: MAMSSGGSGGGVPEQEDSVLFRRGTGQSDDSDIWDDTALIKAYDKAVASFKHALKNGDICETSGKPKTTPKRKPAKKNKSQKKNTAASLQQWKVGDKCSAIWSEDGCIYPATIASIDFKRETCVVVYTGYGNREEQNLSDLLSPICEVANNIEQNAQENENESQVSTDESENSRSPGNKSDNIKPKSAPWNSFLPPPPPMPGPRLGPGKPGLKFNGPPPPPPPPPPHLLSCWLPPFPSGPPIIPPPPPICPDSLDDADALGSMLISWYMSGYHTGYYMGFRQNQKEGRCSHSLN
# UniProt A6NHR9: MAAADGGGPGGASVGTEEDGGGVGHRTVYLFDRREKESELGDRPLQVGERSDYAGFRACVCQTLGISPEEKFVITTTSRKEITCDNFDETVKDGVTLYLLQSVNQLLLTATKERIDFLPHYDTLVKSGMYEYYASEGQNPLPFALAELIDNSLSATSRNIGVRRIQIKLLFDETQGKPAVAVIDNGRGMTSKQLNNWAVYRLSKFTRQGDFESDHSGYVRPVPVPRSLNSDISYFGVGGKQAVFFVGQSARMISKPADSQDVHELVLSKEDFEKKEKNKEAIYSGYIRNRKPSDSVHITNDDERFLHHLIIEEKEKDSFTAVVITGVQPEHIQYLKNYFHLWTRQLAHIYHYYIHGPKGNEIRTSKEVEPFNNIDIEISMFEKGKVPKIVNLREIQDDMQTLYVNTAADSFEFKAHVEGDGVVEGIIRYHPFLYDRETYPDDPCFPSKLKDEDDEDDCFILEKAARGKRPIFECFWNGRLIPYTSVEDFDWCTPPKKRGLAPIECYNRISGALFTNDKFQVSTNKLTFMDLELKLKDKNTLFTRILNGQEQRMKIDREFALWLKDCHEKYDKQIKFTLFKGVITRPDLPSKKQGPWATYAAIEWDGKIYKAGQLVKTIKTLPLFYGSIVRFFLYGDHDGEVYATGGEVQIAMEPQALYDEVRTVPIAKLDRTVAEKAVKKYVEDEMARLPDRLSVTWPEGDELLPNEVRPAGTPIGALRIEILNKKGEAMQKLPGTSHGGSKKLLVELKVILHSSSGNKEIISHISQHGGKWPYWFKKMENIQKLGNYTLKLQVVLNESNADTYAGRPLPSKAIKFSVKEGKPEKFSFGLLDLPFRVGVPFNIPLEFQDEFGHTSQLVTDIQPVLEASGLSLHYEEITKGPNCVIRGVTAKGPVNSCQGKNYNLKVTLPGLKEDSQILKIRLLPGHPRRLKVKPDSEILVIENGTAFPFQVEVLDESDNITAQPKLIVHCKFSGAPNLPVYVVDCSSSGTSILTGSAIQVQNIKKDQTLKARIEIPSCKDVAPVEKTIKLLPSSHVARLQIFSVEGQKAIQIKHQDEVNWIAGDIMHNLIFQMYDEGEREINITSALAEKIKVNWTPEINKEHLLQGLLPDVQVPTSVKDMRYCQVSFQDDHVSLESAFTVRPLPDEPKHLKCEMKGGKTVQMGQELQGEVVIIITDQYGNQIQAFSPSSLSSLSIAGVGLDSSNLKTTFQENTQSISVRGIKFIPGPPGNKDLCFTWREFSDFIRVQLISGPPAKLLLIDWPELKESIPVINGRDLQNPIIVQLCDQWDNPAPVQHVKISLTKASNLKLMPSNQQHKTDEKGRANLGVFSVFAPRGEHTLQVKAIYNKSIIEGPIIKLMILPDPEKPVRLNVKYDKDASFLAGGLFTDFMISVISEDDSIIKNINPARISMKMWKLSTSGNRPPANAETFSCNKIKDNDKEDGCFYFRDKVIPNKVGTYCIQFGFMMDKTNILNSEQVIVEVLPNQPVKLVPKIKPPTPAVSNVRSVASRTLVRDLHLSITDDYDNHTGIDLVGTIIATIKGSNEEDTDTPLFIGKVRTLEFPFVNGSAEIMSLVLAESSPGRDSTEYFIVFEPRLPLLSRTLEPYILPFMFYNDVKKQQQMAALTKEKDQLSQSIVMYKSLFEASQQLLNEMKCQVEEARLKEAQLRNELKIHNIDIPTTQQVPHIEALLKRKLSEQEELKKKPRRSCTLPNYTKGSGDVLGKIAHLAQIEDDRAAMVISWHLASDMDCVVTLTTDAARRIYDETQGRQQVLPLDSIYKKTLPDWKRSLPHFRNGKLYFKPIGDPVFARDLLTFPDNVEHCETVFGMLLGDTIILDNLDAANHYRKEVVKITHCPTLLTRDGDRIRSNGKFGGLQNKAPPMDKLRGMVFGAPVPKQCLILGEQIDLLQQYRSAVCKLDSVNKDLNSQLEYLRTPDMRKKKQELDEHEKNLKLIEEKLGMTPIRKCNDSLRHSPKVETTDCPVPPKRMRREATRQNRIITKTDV
# UniProt Q8ND04: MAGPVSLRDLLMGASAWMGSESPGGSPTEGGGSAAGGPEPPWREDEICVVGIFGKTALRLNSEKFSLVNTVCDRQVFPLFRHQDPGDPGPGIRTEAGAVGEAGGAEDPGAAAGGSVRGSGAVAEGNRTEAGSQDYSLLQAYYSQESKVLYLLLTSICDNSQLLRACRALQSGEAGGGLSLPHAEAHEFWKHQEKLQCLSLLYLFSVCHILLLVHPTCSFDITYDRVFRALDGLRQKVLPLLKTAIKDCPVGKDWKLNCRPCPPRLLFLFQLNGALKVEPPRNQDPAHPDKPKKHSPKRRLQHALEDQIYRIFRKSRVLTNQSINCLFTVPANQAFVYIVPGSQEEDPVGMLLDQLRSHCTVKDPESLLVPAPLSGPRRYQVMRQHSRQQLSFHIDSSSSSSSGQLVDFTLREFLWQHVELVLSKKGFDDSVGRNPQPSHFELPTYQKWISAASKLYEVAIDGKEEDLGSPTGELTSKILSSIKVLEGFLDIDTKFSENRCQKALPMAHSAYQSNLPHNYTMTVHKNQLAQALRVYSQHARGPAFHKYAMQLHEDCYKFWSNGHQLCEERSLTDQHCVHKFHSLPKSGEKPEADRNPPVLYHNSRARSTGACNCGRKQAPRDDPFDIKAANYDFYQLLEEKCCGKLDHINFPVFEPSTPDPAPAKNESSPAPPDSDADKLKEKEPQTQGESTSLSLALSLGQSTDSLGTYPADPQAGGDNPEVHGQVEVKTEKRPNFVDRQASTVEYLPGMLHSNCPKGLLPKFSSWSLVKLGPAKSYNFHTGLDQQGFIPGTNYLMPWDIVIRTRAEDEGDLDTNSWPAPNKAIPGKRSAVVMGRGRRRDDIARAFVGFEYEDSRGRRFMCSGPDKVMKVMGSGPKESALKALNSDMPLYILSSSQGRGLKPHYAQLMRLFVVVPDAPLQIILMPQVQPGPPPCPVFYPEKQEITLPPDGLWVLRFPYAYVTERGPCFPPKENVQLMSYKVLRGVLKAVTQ
# UniProt Q7Z7L1: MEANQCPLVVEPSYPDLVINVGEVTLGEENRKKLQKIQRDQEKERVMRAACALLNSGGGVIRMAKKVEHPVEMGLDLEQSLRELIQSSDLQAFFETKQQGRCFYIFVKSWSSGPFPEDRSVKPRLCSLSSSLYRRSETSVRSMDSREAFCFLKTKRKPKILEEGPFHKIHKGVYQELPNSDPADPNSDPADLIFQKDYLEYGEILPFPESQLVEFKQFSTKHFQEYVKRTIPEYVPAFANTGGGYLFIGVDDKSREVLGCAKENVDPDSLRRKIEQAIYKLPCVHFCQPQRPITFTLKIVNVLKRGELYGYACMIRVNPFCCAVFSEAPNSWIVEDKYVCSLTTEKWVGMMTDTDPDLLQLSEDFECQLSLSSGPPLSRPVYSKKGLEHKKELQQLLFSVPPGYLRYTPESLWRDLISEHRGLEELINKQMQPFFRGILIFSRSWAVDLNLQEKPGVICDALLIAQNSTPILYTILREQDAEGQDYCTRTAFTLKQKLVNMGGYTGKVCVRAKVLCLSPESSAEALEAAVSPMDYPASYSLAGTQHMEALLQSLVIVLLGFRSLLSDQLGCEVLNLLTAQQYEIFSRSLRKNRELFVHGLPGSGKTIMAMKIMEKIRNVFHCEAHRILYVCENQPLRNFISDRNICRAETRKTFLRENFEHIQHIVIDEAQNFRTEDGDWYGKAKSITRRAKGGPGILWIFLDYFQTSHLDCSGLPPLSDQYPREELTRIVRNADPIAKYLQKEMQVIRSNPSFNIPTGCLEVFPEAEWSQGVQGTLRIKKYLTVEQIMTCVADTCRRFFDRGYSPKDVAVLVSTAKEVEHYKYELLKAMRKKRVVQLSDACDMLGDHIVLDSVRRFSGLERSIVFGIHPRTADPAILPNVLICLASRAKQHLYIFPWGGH
# UniProt O60906: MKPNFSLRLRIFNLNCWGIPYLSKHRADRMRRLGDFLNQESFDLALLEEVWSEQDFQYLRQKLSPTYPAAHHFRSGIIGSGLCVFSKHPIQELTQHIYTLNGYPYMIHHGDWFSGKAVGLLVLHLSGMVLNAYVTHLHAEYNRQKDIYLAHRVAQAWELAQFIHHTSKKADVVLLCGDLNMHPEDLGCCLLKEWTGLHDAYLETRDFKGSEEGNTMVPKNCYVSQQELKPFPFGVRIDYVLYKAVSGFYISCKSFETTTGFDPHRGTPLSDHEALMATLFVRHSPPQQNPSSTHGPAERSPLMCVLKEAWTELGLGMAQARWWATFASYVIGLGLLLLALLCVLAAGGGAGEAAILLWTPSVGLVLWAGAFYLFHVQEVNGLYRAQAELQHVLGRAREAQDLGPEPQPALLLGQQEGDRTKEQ
# UniProt Q92966: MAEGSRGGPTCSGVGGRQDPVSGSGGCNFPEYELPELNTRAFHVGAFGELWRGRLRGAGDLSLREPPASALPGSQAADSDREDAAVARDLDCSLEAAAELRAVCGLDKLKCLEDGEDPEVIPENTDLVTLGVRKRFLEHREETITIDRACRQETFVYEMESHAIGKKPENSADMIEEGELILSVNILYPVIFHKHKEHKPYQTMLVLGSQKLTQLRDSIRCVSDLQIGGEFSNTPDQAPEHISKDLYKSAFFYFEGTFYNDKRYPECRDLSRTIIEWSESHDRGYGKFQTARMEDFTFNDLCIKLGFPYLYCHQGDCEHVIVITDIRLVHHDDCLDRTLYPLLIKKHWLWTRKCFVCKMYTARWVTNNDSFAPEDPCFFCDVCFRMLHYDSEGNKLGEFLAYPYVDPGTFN
# UniProt Q9NTJ3, whole entry, looked up: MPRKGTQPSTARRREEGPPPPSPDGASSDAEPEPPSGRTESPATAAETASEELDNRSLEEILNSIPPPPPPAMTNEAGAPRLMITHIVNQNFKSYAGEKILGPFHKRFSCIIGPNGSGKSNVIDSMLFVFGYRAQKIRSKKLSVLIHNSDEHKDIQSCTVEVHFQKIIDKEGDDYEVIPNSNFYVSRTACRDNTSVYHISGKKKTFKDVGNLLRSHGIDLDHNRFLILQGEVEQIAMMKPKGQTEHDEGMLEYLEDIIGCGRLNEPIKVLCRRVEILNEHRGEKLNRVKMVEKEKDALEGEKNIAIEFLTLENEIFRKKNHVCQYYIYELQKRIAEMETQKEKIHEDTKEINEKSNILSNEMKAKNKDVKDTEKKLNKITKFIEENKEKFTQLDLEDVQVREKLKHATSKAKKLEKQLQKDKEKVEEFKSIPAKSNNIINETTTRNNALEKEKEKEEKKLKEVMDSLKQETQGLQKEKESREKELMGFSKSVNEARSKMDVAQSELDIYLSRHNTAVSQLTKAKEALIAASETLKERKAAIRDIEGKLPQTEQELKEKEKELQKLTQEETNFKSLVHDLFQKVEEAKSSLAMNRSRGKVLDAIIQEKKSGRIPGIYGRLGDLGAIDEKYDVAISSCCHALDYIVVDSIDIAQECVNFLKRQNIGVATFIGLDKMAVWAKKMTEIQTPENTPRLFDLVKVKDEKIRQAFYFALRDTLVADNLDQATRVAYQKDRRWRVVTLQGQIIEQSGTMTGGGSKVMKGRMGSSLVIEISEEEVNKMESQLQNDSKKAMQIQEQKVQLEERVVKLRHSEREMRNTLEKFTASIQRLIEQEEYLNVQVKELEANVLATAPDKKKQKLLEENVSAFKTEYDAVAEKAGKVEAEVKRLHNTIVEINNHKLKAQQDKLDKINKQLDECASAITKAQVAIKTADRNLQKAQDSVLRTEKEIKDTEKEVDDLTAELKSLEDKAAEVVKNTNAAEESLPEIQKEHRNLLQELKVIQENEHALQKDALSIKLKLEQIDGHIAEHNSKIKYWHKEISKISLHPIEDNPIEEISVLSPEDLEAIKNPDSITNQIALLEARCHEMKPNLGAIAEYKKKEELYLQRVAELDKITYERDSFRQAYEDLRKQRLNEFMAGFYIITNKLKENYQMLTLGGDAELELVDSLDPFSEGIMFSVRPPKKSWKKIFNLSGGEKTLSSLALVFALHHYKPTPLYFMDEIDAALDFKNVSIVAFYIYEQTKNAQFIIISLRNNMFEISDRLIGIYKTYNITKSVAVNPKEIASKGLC
# Compound: Cc1cc(ccc1-c1ccccc1)C(=O)N1CCCN(CC1)C(=O)CCl [compound 10]
# Experiment: probe-labelled cysteine peptide fold change vs DMSO (competition) (log2 fold change); higher = less target engagement (more negative = stronger competition)
# Settings: THP-1, incubation time: 4 h
# 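Also: competitive profiling in live THP-1 cells: cysteine peptides tagged with an iodoacetamide desthiobiotin (IA-DTB) probe, intensity after compound treatment relative to DMSO-treated cells.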
Target,probe-labelled cysteine peptide fold change (10 µM),probe-labelled cysteine peptide fold change (50 µM)
SMC6_Q96SB8_385_DDEQLCK (UniProt Q96SB8),0.0125,-0.0345
SMURF2_Q9HAU4_706_LFTIHQIDACTNNLPK (UniProt Q9HAU4),-0.159,-0.59
SLK_Q9H2G2_1212_MTGESECLNPSTQSR (UniProt Q9H2G2),-0.142,-0.43
SLC9A3R2_Q15599_103_QLTCTEEMAQR (UniProt Q15599),0.222,0.0651
SND1_Q7KZF4_440_TCATVTIGGINIAEALVSK (UniProt Q7KZF4),0.165,0.0227
SNRPB_P14678_43_HMNLILCDCDEFRK (UniProt P14678),0.0505,-0.113
SNRPB_P14678_45_HMNLILCDCDEFRK (UniProt P14678),0.00747,-0.106
SMG9_Q9H0W8_380_EDFCPR (UniProt Q9H0W8),-0.575,-0.936
SNRPC_P09234_25_KTHCSGR (UniProt P09234),0.0214,-0.97
SMN2_Q16637_98_CSAIWSEDGCIYPATIASIDFKR (UniProt Q16637),-0.222,-0.345
SMG7_Q92540_537_NLSNNCDTGEKPVVTFK (UniProt Q92540),-0.196,-0.392
SMC1A_Q14683_987_EALIEIDYGDLCEDLK (UniProt Q14683),-0.289,-0.166
SNRNP200_O75643_1706_CVIMCQGSKK (UniProt O75643),-0.335,-0.344
SLX4IP_Q5VYV7_299_NCSSAEDFDHHGR (UniProt Q5VYV7),-0.127,-0.368
SMCHD1_A6NHR9_474_RPIFECFWNGR (UniProt A6NHR9),-0.0556,0.352
SND1_Q7KZF4_826+837_DIQNTQCLLNVEHLSAGCPHVTLQFADSKGDVGLGLVK (UniProt Q7KZF4),-0.0831,-0.937
SMC3_Q9UQE7_1134_CDPAPFYLFDEIDQALDAQHR (UniProt Q9UQE7),0.416,0.52
SMC1A_Q14683_613_ALQYACGNALVCDNVEDARR (UniProt Q14683),-0.0363,0.0794
SMC1A_Q14683_933_HNLLQACK (UniProt Q14683),0.0314,-0.0982
SMC2_O95347_132_VQDLFCSVGLNVNNPHFLIMQGR (UniProt O95347),0.121,0.236
SMCHD1_A6NHR9_84_EITCDNFDETVK (UniProt A6NHR9),-0.182,-0.259

Target,probe-labelled cysteine peptide fold change (10 µM),probe-labelled cysteine peptide fold change (50 µM)
SND1_Q7KZF4_837_DIQNTQCLLNVEHLSAGCPHVTLQFADSKGDVGLGLVK (UniProt Q7KZF4),0.0091,-0.728
SNRNP200_O75643_576_RLATYGITVAELTGDHQLCK (UniProt O75643),-0.0412,0.0936
SMU1_Q2TAY7_312_GVTCLSFSK (UniProt Q2TAY7),0.0977,0.00392
SMAD4_Q13485_401_CLSDHAVFVQSYYLDR (UniProt Q13485),0.224,0.0111
SNRNP200_O75643_516_TNVALMCMLR (UniProt O75643),0.0138,0.196
SMAD3_P84022_332_YGWHPATVCK (UniProt P84022),-0.0104,-0.137
SMAD4_Q13485_123+127_CDSVCVNPYHYER (UniProt Q13485),0.132,0.205
SNRNP200_O75643_1359_TICAEFAILR (UniProt O75643),0.0052,0.0694
SMCHD1_A6NHR9_444_ETYPDDPCFPSK (UniProt A6NHR9),-0.204,0.0464
SMG6_Q86US8_182_VEEEEVLNQVEQLRVEEDECR (UniProt Q86US8),-0.314,0.143
SMG8_Q8ND04_755_QASTVEYLPGMLHSNCPK (UniProt Q8ND04),-0.0863,-0.362
SMC5_Q8IY18_417_ALCEGEIIDK (UniProt Q8IY18),0.116,0.0585
SND1_Q7KZF4_96_EVCFTIENK (UniProt Q7KZF4),0.11,-0.0268
SLFN13_Q68D06_631_ILYVCENQPLR (UniProt Q68D06),0.0297,0.0636
SNRNP200_O75643_576_LATYGITVAELTGDHQLCK (UniProt O75643),0.0912,0.231
SLITRK4_Q8IW52_580_NEILCPK (UniProt Q8IW52),-0.2,-0.364
SNRNP200_O75643_1278_VVSDRWLSCETQLPVSFR (UniProt O75643),-0.0123,-0.0331
SMAD4_Q13485_391_GVQLECK (UniProt Q13485),0.18,0.029
SNRPC_P09234_6_FYCDYCDTYLTHDSPSVR (UniProt P09234),0.194,-0.549
SNRPB_P14678_19_CILQDGR (UniProt P14678),0.117,0.0825
SLITRK4_Q8IW52_661_HEGLGNPDCGSMQLQLR (UniProt Q8IW52),-0.281,-0.498

Target,probe-labelled cysteine peptide fold change (10 µM),probe-labelled cysteine peptide fold change (50 µM)
SMC1A_Q14683_613+619_ALQYACGNALVCDNVEDARR (UniProt Q14683),-0.252,-0.0812
SLC4A1AP_Q9BWU0_399_ALQGFFDREGEELEYEFDEQGHSTWLCR (UniProt Q9BWU0),0.228,0.0621
SMARCAD1_Q9H4L7_861_VLGCILSELK (UniProt Q9H4L7),0.0115,0.278
SMARCC1_Q92922_761_VDPTYGLESSCIAGTGPDEPEKLEGAEEEK (UniProt Q92922),-0.444,-0.14
SMARCA5_O60264_283_DVLLPGEWDVCVTSYEMLIK (UniProt O60264),-0.039,0.0736
SMG8_Q8ND04_72_FSLVNTVCDR (UniProt Q8ND04),-0.0267,-0.165
SNRNP200_O75643_769_TEAEQCK (UniProt O75643),-0.0819,0.064
SLFN11_Q7Z7L1_791_YLTVEQIMTCVADTCRR (UniProt Q7Z7L1),-0.0539,-0.577
SMPD4_Q9NXE4_766_FAGQMAALCSR (UniProt Q9NXE4),-0.138,-0.428
SLFN11_Q7Z7L1_51_AACALLNSGGGVIR (UniProt Q7Z7L1),0.00429,-0.183
SMAD5_Q99717_110_WPDLQSHHELKPLDICEFPFGSK (UniProt Q99717),-0.00397,-0.103
SMU1_Q2TAY7_383_TTECSNTFK (UniProt Q2TAY7),-0.00672,0.086
SNRPB_P14678_43+45_HMNLILCDCDEFRK (UniProt P14678),0.0132,-0.252
SNRNP200_O75643_1506_DVAHWLGCSATSTFNFHPNVR (UniProt O75643),0.125,0.238
SLC7A6OS_Q96CW6_166_TSDPDVILCNSVELIR (UniProt Q96CW6),-0.374,-0.146
SMPD2_O60906_188_KADVVLLCGDLNMHPEDLGCCLLK (UniProt O60906),-0.0882,0.253
SLC7A6OS_Q96CW6_62_AAENNVFHLVATVCSQEEPVQPLLR (UniProt Q96CW6),0.249,-0.159
SLMAP_Q14BN4_641_CQQCEDQQR (UniProt Q14BN4),0.124,0.22
SNRNP200_O75643_502_AALETDENLLLCAPTGAGK (UniProt O75643),0.0328,0.497
SNRNP200_O75643_1702_CVIMCQGSKK (UniProt O75643),-0.0876,-0.684
SMAD4_Q13485_115_YCQYAFDLK (UniProt Q13485),0.0205,-0.164

Target,probe-labelled cysteine peptide fold change (10 µM),probe-labelled cysteine peptide fold change (50 µM)
SMPD2_O60906_189_KADVVLLCGDLNMHPEDLGCCLLK (UniProt O60906),-0.193,0.0371
SMN2_Q16637_107_CSAIWSEDGCIYPATIASIDFKR (UniProt Q16637),-0.198,-0.213
SNAPC3_Q92966_92_DLDCSLEAAAELR (UniProt Q92966),0.0062,0.346
SMARCA2_P51531_399_QEVVACMR (UniProt P51531),0.0865,0.109
SMC4_Q9NTJ3_110_RFSCIIGPNGSGK (UniProt Q9NTJ3),-0.0701,0.0176
SNRPC_P09234_25_THCSGR (UniProt P09234),0.23,0.238
SMC4_Q9NTJ3_323_NHVCQYYIYELQK (UniProt Q9NTJ3),0.0817,-0.109
SMN2_Q16637_123_ETCVVVYTGYGNR (UniProt Q16637),0.186,0.429
SNRNP200_O75643_428_CQLPDGSFR (UniProt O75643),-0.244,-0.0328
SMARCC2_Q8TAQ2_635_TQDECILHFLR (UniProt Q8TAQ2),0.0634,0.139
SLC39A14_Q15043_290_LQNGDLDHMIPQHCSSELDGK (UniProt Q15043),-0.206,-0.37
SMC5_Q8IY18_393_TTENCENLQPQIDAITNDLRR (UniProt Q8IY18),-0.0839,-0.208
SMCR8_Q8TEV9_644_DNSCEGFPAYELDPSHLLASR (UniProt Q8TEV9),0.0826,0.501
SLC4A1AP_Q9BWU0_125_EGPTALQDSNSGEPDIPPPQPDCGDFR (UniProt Q9BWU0),-0.235,-0.383
SMC3_Q9UQE7_1134_CDPAPFYLFDEIDQALDAQHRK (UniProt Q9UQE7),0.188,0.33
SMARCD2_Q92925_405_TACYDIDVEVDDPLK (UniProt Q92925),-0.0837,0.244
SNRNP200_O75643_302_TASDDRECENQLVLLLGFNTFDFIK (UniProt O75643),0.114,0.668
SLK_Q9H2G2_552_DVISNTSDVIGTCEAADVAQK (UniProt Q9H2G2),-0.0425,-0.0714
SLC44A1_Q8WWI5_98_YVFFLDPCNLDLINRK (UniProt Q8WWI5),-0.00663,-0.221
SMC3_Q9UQE7_650_AFTMDCITLEGDQVSHR (UniProt Q9UQE7),0.147,0.286

# Rewritten with tabs: entries from further up.
Target	probe-labelled cysteine peptide fold change (10 µM)	probe-labelled cysteine peptide fold change (50 µM)
SLC7A6OS_Q96CW6_166_TSDPDVILCNSVELIR (UniProt Q96CW6)	-0.374	-0.146
SMPD2_O60906_188_KADVVLLCGDLNMHPEDLGCCLLK (UniProt O60906)	-0.0882	0.253
SLC7A6OS_Q96CW6_62_AAENNVFHLVATVCSQEEPVQPLLR (UniProt Q96CW6)	0.249	-0.159
SLMAP_Q14BN4_641_CQQCEDQQR (UniProt Q14BN4)	0.124	0.22
SNRNP200_O75643_502_AALETDENLLLCAPTGAGK (UniProt O75643)	0.0328	0.497
SNRNP200_O75643_1702_CVIMCQGSKK (UniProt O75643)	-0.0876	-0.684
SMAD4_Q13485_115_YCQYAFDLK (UniProt Q13485)	0.0205	-0.164
SMPD2_O60906_189_KADVVLLCGDLNMHPEDLGCCLLK (UniProt O60906)	-0.193	0.0371
SMN2_Q16637_107_CSAIWSEDGCIYPATIASIDFKR (UniProt Q16637)	-0.198	-0.213
SNAPC3_Q92966_92_DLDCSLEAAAELR (UniProt Q92966)	0.0062	0.346
SMARCA2_P51531_399_QEVVACMR (UniProt P51531)	0.0865	0.109
SMC4_Q9NTJ3_110_RFSCIIGPNGSGK (UniProt Q9NTJ3)	-0.0701	0.0176
SNRPC_P09234_25_THCSGR (UniProt P09234)	0.23	0.238
SMC4_Q9NTJ3_323_NHVCQYYIYELQK (UniProt Q9NTJ3)	0.0817	-0.109
SMN2_Q16637_123_ETCVVVYTGYGNR (UniProt Q16637)	0.186	0.429
SNRNP200_O75643_428_CQLPDGSFR (UniProt O75643)	-0.244	-0.0328
SMARCC2_Q8TAQ2_635_TQDECILHFLR (UniProt Q8TAQ2)	0.0634	0.139
SLC39A14_Q15043_290_LQNGDLDHMIPQHCSSELDGK (UniProt Q15043)	-0.206	-0.37
SMC5_Q8IY18_393_TTENCENLQPQIDAITNDLRR (UniProt Q8IY18)	-0.0839	-0.208
SMCR8_Q8TEV9_644_DNSCEGFPAYELDPSHLLASR (UniProt Q8TEV9)	0.0826	0.501
SLC4A1AP_Q9BWU0_125_EGPTALQDSNSGEPDIPPPQPDCGDFR (UniProt Q9BWU0)	-0.235	-0.383
SMC3_Q9UQE7_1134_CDPAPFYLFDEIDQALDAQHRK (UniProt Q9UQE7)	0.188	0.33
SMARCD2_Q92925_405_TACYDIDVEVDDPLK (UniProt Q92925)	-0.0837	0.244
SNRNP200_O75643_302_TASDDRECENQLVLLLGFNTFDFIK (UniProt O75643)	0.114	0.668
